{
  "source": "patent US6864068B2",
  "about": "“Antifungal proteins” (Syngenta Limited, priority 1995, dated 2005)",
  "test_system": "F culmorum",
  "experiment": "Specific antifungal activity of Rs-AFP2 isoforms in SMF− and SMF+ media",
  "type": "cell-based",
  "parameters": "unit not given here",
  "settings": "72 hours growth, triplicate",
  "procedure": "For each isoform, two independent purifications were carried out and the antifungal activity was determined in duplicate using F culmorum as a test fungus in two different media: a low ionic strength medium called SMF-(Terras et al, 1992, J Biol Chem, 267:15301-15309) and the same medium supplemented with 1 mM CaCl2 and 50 mM KCl called SMF+. The presence of salts in the test medium, especially salts with divalent cations, reduces the specific activity of Rs-AFP2. Seed-purified as well as yeast-expressed wild type Rs-AFP2 served as a control in the assays.\nThe relative specific activity is expressed as the specific activity of the mutant divided by the specific activity of yRs-AFP2 and multiplied by 100. […] The specific activity was measured in medium SMF−and SMF+.\nDeviations are given as standard error of the mean (sem) based on the triplicate experiments. In SMF−, the medium without added salts, most of the derivatives show no decrease or only a minor decrease in antifungal activity, while in SMF+, the medium with added salts, there is a significant decrease in antifungal activity for several Rs-AFP2 isoforms.",
  "note": "At least one read-out could not be matched to a standard name with certainty.",
  "data": [
    {"substance": "yRs-AFP2/K44Q (QKLCQRPSGTWSGVCGNNNACKNQCIRLEKARHGSCNYVFPAHQCICYFPC; listed as Raphanus sativus)", "values": [
      {"measurement": "IC50 SMF+", "setting": "high salt medium (1 mM CaCl2, 50 mM KCl)", "value": 36.0},
      {"measurement": "IC50 SMF−", "setting": "low salt medium", "value": 3.6}
    ]}
  ]
}
